Experimental data as given in publication PMC13254595.
No constants are given. Whether binding was seen depends on the method and setting. Binding seen in cells or lysates may run through a third protein. Some binding calls cover weakened binding; strength is not graded here.

What was measured:
[1] = molecular target: T1, iron regulatory protein 1 (IRP1) (human (endogenous in PANC-1 and Patu-8988)) (UniProt P21399); assay: co-IP; cytoplasmic protein of PANC-1 and Patu-8988 cells, with or without hemin; IRP1 and ARID3A antibodies on protein A/G beads, Western blot
T1 sequence: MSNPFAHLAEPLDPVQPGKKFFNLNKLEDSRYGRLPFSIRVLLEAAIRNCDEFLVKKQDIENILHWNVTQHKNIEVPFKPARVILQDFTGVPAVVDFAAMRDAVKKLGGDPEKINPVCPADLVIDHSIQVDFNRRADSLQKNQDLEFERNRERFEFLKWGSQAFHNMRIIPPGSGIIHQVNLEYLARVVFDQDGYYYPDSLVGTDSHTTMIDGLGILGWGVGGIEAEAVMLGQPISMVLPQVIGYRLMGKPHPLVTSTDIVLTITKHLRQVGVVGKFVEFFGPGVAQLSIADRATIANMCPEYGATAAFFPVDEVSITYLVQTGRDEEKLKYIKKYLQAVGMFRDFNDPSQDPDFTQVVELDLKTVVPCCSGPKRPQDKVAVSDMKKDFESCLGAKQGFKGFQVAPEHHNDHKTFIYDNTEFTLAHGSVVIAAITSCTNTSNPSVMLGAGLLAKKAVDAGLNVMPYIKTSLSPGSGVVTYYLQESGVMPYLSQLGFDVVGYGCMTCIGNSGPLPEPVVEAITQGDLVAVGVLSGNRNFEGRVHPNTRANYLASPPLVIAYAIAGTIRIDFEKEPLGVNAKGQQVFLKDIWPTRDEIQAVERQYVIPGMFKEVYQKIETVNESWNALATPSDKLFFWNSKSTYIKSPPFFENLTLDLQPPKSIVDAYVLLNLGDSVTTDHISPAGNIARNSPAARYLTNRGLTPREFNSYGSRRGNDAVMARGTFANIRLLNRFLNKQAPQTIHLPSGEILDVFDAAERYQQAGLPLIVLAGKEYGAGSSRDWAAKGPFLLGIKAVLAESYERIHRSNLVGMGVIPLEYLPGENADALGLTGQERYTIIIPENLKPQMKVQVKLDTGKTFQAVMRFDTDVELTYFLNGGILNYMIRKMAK

[2] = molecular target: T1, iron regulatory protein 1 (IRP1) (human (endogenous in PANC-1 and Patu-8988)); assay: co-IP; total protein of PANC-1 and Patu-8988 cells; IRP1 and ARID3A antibodies on protein A/G beads, 1 h at room temperature, Western blot; also with or without pre-treatment with hemin (binding increased) or desferroxamine (binding inhibited)
[3] = molecular target: T1, iron regulatory protein 1 (IRP1) (human (endogenous in PANC-1 and Patu-8988)); assay: co-IP; nuclear protein of PANC-1 and Patu-8988 cells, iron overload (hemin); IRP1 and ARID3A antibodies on protein A/G beads, Western blot

binding [2]: binds
binding [3]: binds
B1: A + T rich interaction domain protein 3a (ARID3A) (protein, UniProt Q99856 1-593)
chain: MKLQAVMETLLQRQQRARQELEARQQLPPDPPAAPPGRARAAPDEDREPESARMQRAQMAALAAMRAAAAGLGHPASPGGSEDGPPGSEEEDAAREGTPGSPGRGREGPGEEHFEDMASDEDMKPKWEEEEMEEDLGEDEEEEEEDYEDEEEEEDEEGLGPPGPASLGTTALFPRKAQPPQAFRGDGVPRVLGGQERPGPGPAHPGGAAHVAPQLQPPDHGDWTYEEQFKQLYELDGDPKRKEFLDDLFSFMQKRGTPVNRIPIMAKQVLDLFMLYVLVTEKGGLVEVINKKLWREITKGLNLPTSITSAAFTLRTQYMKYLYPYECEKRGLSNPNELQAAIDSNRREGRRQSFGGSLFAYSPGGAHGMLSSPKLPVSSLGLAASTNGSSITPAPKIKKEEDSAIPITVPGRLPVSLAGHPVVAAQAAAVQAAAAQAAVAAQAAALEQLREKLESAEPPEKKMALVADEQQRLMQRALQQNFLAMAAQLPMSIRINSQASESRQDSAVNLTGTNGSNSISMSVEINGIMYTGVLFAQPPAPTPTSAPNKGGGGGGGSSSNAGGRGGNTGTSGGQAGPAGLSTPSTSTSNNSLP
binding [1]: no binding (condition: cytoplasmic protein fraction)
